## Results from one PubChem assay

Source: PubChem BioAssay AID1745848 (NCATS, 2022).

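A cell-based luciferase reporter for ATXN2 expression, read by light output at 24 h, with a viability multiplex. Compounds were tested as a dilution series from about 0.0037 to 57 µM. The number is the fitted half-maximal inhibitory concentration (AC50); a lower value means a more potent inhibitor. Calls come from curve class and activity score: actives score 40–100, while inconclusive compounds (weak, partial, poorly fitted or single-point curves) score 1–39.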

Values are in µM. All entries here are filed as inconclusive. Only part of the assay is shown, chiefly results filed as inconclusive. Potencies fitted to partial, single-point or poorly fitting curves are rough. Some entries filed as inconclusive have a full curve. Activity scores are not listed here.

SMILES: CC(C)n1cnc2c(N(C)c3ccccc3)nc(N(CCN(C)C)Cc3ccccc3)nc21
potency (µM): 25.12
remark: inhibitor, single point

SMILES: CC(C)CNc1c2c(nc3ccccc13)CCC2
potency (µM): 2.512
remark: inhibitor, partial curve

SMILES: CCC1(c2ccccc2)ON(c2c(Br)cccc2Br)C1=O (stereo not given)
potency (µM): 28.18
remark: inhibitor, partial curve, poor fit

SMILES: O=C(NNc1nc2ccc(Cl)cc2s1)c1cc(-c2cccs2)nc2ccccc12
potency (µM): 3.981
remark: inhibitor, single point

SMILES: CCOC(=O)c1sc2nc(CSc3ccccc3)nc(NCCN(C)C)c2c1C
potency (µM): 19.95
remark: inhibitor, partial curve, poor fit

SMILES: O=C(Nc1cccc(-c2cccc(Cl)c2)c1)C1CCN(C2CCC2)CC1
potency (µM): 28.18
remark: inhibitor, partial curve, poor fit

SMILES: O=C(N/N=C/c1ccccc1O)c1ccncc1
potency (µM): 17.78
remark: inhibitor, partial curve, poor fit

SMILES: CC1=CC(C)(C)N2C(=O)C3(SCC(=O)N3c3ccc(F)cc3)c3cc(C)cc1c32 (stereo not given)
potency (µM): 2.239
remark: inhibitor, partial curve, poor fit

SMILES: CCCc1cnc(NCCNCC(O)COc2ccc(Cl)c(Cl)c2)nc1 (stereo not given)
potency (µM): 17.78
remark: inhibitor, partial curve, poor fit

SMILES: COc1ccc(CC(N)c2csc(NC(=O)c3cccc(OC(F)(F)F)c3)n2)cc1 (stereo not given)
potency (µM): 31.62
remark: inhibitor, single point

SMILES: CC1CC(C)CN(CCCNC(=O)c2cc3c(s2)-c2ccccc2OC3)C1 (stereo not given)
potency (µM): 1.259
remark: inhibitor, partial curve

SMILES: Cc1ccccc1SCC(=O)N1CCN(c2ccc(C(F)(F)F)cn2)CC1
potency (µM): 2.818
remark: inhibitor, partial curve

SMILES: O=C1C(SCCO)=C(SCCO)C(=O)c2ccccc21
potency (µM): 3.162
remark: inhibitor, full curve, poor fit

SMILES: O=C(CCc1ccccc1)NNC(=O)c1cc(Cl)ccc1O
potency (µM): 3.162
remark: inhibitor, partial curve

SMILES: COc1cccc(/C=N/NC(=O)CSCC(=O)Nc2ccccc2)c1O
potency (µM): 0.7943
remark: inhibitor, full curve

SMILES: CCc1nc2c(OCCOc3ccc(F)cc3)cccn2c1N(C=O)Cc1ccc(OC)cc1
potency (µM): 17.78
remark: inhibitor, partial curve, poor fit

SMILES: Cc1nc2ccccc2c2oc(C(=O)Nc3ccc(C(C)C)cc3)cc12
potency (µM): 25.12
remark: inhibitor, partial curve, poor fit

SMILES: O=C(Cn1c(=O)n(CC(=O)NCc2ccccc2)c2ccccc21)NCc1ccccc1
potency (µM): 28.18
remark: inhibitor, single point

SMILES: NNc1ncnc2scc(-c3ccc(Cl)cc3)c12
potency (µM): 17.78
remark: inhibitor, partial curve, poor fit

SMILES: O=C(CN1CC(c2ccccc2)CC1=O)N/N=C/c1cc(Br)ccc1O (stereo not given)
potency (µM): 14.13
remark: inhibitor, partial curve, poor fit

SMILES: CCN(CC)CCCNc1nc2ccccc2c2nc(-c3ccncc3)nn12
potency (µM): 25.12
remark: inhibitor, partial curve, poor fit

Repeated from the top, 2 entries:

SMILES	potency (µM)	remark
CC(C)n1cnc2c(N(C)c3ccccc3)nc(N(CCN(C)C)Cc3ccccc3)nc21	25.12	inhibitor, single point
CC(C)CNc1c2c(nc3ccccc13)CCC2	2.512	inhibitor, partial curve